# Results deposited as PubChem BioAssay AID1259308 (NCATS, 2017)
# Purpose: 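Genes whose loss raises luciferase production in HEK293 cells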 (primary screen)
# Cells: human HEK293 embryonic kidney cells stably expressing firefly luciferase (HEK-CMV-Luc2-Hygro)
# Reagents: single siRNA against human genes, 0.8 pmol siRNA per well
# Timing: 72 h
# Measurement: 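Reporter luminescence and viable-cell signal on separate replicate plates, given as percent of non-targeting control and median/MAD z-scores, plus per-cell luciferase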
# Direction: total luciferase, z-score and total luciferase, % of control: higher = more reporter protein produced; luciferase per cell, z-score: higher = more reporter output per viable cell
# Call rule: 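An siRNA counts as active if its total luciferase robust z-score exceeds 3; genes with two or more such siRNAs out of three were retested with fresh siRNAs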
# Calls: active = raised luciferase; inactive = no rise
# This is an unselected part of about 59,000 reagents. About 1,510 of them (2.6%) count as active. 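Calls use total luciferase alone and ignore viability, so some active siRNAs may act by altering cell number.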 A number with no mark means an inactive call. The numbers tell different reagents against one gene apart. Further read-outs or replicates are left out here. Reagent sequences are not shown.
target,siRNA no.,"total luciferase, z-score","total luciferase, % of control","luciferase per cell, z-score"
SCPEP1 (serine carboxypeptidase 1),1,-0.41,73.7,-0.143
SCPEP1 (serine carboxypeptidase 1),2,-1.28,56.5,-1.47
SCPEP1 (serine carboxypeptidase 1),3,-2.46,32.9,-3.91
LYPD3 (LY6/PLAUR domain containing 3),1,0.219,86.3,0.991
LYPD3 (LY6/PLAUR domain containing 3),2,2.58,133,1.6
LYPD3 (LY6/PLAUR domain containing 3),3,-0.429,73.4,0.794
YWHAG,1,-0.142,79.1,-0.676
YWHAG,2,0.388,89.6,0.677
YWHAG,3,1.46,111,1.18
SLC22A15,1,0.863,99.1,0.97
SLC22A15,2,-0.331,75.3,-0.36
SLC22A15,3,-2.01,41.8,-1.48
FANCI (FA complementation group I),1,-1.68,48.4,-1.96
FANCI (FA complementation group I),2,-0.696,68,-0.199
FANCI (FA complementation group I),3,-0.302,75.9,-0.576
NXF3 (nuclear RNA export factor 3),1,-0.0322,81.2,-0.126
NXF3 (nuclear RNA export factor 3),2,0.521,92.2,0.241
NXF3 (nuclear RNA export factor 3),3,-1.02,61.7,-1
SPRR1A (small proline rich protein 1A),1,-2.52,31.8,-2.68
SPRR1A (small proline rich protein 1A),2,-0.244,77,-0.359
SPRR1A (small proline rich protein 1A),3,2.27,127,1.81
YIPF3 (Yip1 domain family member 3),1,0.269,87.2,1.11
YIPF3 (Yip1 domain family member 3),2,-0.0679,80.5,-0.699
YIPF3 (Yip1 domain family member 3),3,-0.568,70.6,-0.621

The list goes on, starting with the last 6 of the part before.
target,siRNA no.,"total luciferase, z-score","total luciferase, % of control","luciferase per cell, z-score"
SPRR1A (small proline rich protein 1A),1,-2.52,31.8,-2.68
SPRR1A (small proline rich protein 1A),2,-0.244,77,-0.359
SPRR1A (small proline rich protein 1A),3,2.27,127,1.81
YIPF3 (Yip1 domain family member 3),1,0.269,87.2,1.11
YIPF3 (Yip1 domain family member 3),2,-0.0679,80.5,-0.699
YIPF3 (Yip1 domain family member 3),3,-0.568,70.6,-0.621
"ANKRD20A5P (ankyrin repeat domain 20 family member A5, pseudogene)",1,-0.0282,81.3,0.352
"ANKRD20A5P (ankyrin repeat domain 20 family member A5, pseudogene)",2,0.222,86.3,-0.0989
"ANKRD20A5P (ankyrin repeat domain 20 family member A5, pseudogene)",3,-0.468,72.6,-1.2
CTDSP1 (CTD small phosphatase 1),1,-0.342,75.1,0.366
CTDSP1 (CTD small phosphatase 1),2,-0.793,66.1,-0.223
CTDSP1 (CTD small phosphatase 1),3,-0.803,65.9,-0.62
GDF6 (growth differentiation factor 6),1,-0.823,65.5,-0.904
GDF6 (growth differentiation factor 6),2,1.2,106,1.42
GDF6 (growth differentiation factor 6),3,0.0469,82.8,0.00306
FHIP2B (FHF complex subunit HOOK interacting protein 2B),1,-1.36,54.9,-0.948
FHIP2B (FHF complex subunit HOOK interacting protein 2B),2,0.452,90.9,2.33
FHIP2B (FHF complex subunit HOOK interacting protein 2B),3,0.0985,83.8,0.486
RWDD2B (RWD domain containing 2B),1,-0.23,77.3,-0.458
RWDD2B (RWD domain containing 2B),2,0.432,90.5,1.91
RWDD2B (RWD domain containing 2B),3,-0.157,78.8,0.466
TPST1 (tyrosylprotein sulfotransferase 1),1,-0.327,75.4,-0.514
TPST1 (tyrosylprotein sulfotransferase 1),2,-0.317,75.6,-0.629
TPST1 (tyrosylprotein sulfotransferase 1),3,-1.12,59.6,-0.822
YJEFN3 (YjeF N-terminal domain containing 3),1,-1.18,58.4,0.331
YJEFN3 (YjeF N-terminal domain containing 3),2,-2.64,29.4,-2.98
YJEFN3 (YjeF N-terminal domain containing 3),3,-0.133,79.2,-0.0343
P2RY12 (purinergic receptor P2Y12),1,0.187,85.6,-0.634
P2RY12 (purinergic receptor P2Y12),2,-0.318,75.6,-0.0861
P2RY12 (purinergic receptor P2Y12),3,-0.578,70.4,-0.551
POLR3F (RNA polymerase III subunit F),1,1.5,112,0.772
POLR3F (RNA polymerase III subunit F),2,-1.62,49.6,-1.07
POLR3F (RNA polymerase III subunit F),3,0.464,91.1,0.673
"TEF (TEF transcription factor, PAR bZIP family member)",1,-1.57,50.6,-1.52
"TEF (TEF transcription factor, PAR bZIP family member)",2,-0.467,72.6,-0.86
"TEF (TEF transcription factor, PAR bZIP family member)",3,3.29 (active),147,2.41
TMEM43 (transmembrane protein 43),1,-0.847,65,-0.545
TMEM43 (transmembrane protein 43),2,-1.29,56.2,-0.461
TMEM43 (transmembrane protein 43),3,-0.147,79,0.621
